Experimental data: patent publication US11180811B2, “Molecular signatures of conditions associated with longevity” (The Brigham and Women's Hospital, Inc., priority 2014, dated 2021)
At least one compound was matched to its structure with a doubt left.

Legend:
[1] = tested on: Kidney longevity gene expression signature; experiment: Compounds that shift gene expression in the direction of longevity (Table 6), kidney
Description: (§1) The methods, assays, and systems described herein can be useful in a number of areas, including the discovery and validation of new targets for reducing rate of aging, extending lifespan, reducing incidence and delaying onset of disease and improving overall health of aging populations. Furthermore, the invention can facilitate the discovery and development of drugs, biologicals and treatment regimens based on the above that favorably intervene in the aging process. For example, the gene expression signatures described herein can be used to choose target gene products in a therapeutic protocol, to elaborate the biological function of the target gene product in the aging process, and to identify compounds that alleviate deterioration associated with aging by modulating the activity of target gene products. For example, several compounds that shift gene expression in the direction of longevity have been identified or validated using the assays or methods described herein (Table 6).
(§2) In Table 6, several compounds that shift gene expression in the direction of longevity have been identified or validated.

[2] = tested on: Brain longevity gene expression signature; experiment: Compounds that shift gene expression in the direction of longevity (Table 6), brain
Description: as §1, §2

| Compound | Direction of lifespan associated with the compound's shift of gene expression (Increased lifespan / Decreased lifespan) [1] | Direction of lifespan associated with the compound's shift of gene expression (Increased lifespan / Decreased lifespan) [2] |
| --- | --- | --- |
| CO[C@H]1C[C@@H]2CC[C@@H](C)[C@@](O)(O2)C(=O)C(=O)N2CCCC[C@H]2C(=O)O[C@H]([C@H](C)C[C@@H]2CC[C@@H](O)[C@H](OC)C2)CC(=O)[C@H](C)/C=C(\C)[C@@H](O)[C@@H](OC)C(=O)[C@H](C)C[C@H](C)/C=C/C=C/C=C/1C [Rapamycin] | Increased |  |
| COC[C@H]1OC(=O)c2coc3c2[C@@]1(C)C1=C(C3=O)[C@@H]2CCC(=O)[C@@]2(C)C[C@H]1OC(C)=O [Wortmannin] | Increased | Increased |
| C=CCNC1=C2C[C@@H](C)C[C@H](OC)[C@H](O)[C@@H](C)/C=C(\C)[C@H](OC(N)=O)[C@@H](OC)/C=C\C=C(/C)C(=O)NC(=CC1=O)C2=O [Tanespimycin] | Decreased | Decreased |
